Laboratory results from the supplement of paper PMC2577665.
Single values of this set are uncertain.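 Each test well overexpressed one poorly characterized human cDNA in ERalpha-negative HeLa cells together with transfected ERalpha and a reporter carrying two estrogen response elements. A gene counted as a repressor hit if it cut the signal to the level of the BRCA1 positive control (about 0.6 of empty vector) or lower.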

tested on: ERE-luciferase reporter with exogenous ERalpha in HeLa cells; assay: relative ERE luciferase activity (Firefly/Renilla) upon cDNA overexpression, relative to empty vector (fold of empty vector); higher = stronger ERalpha transactivation (less repression); conditions: 17beta-estradiol: 10 nM; 12 h

Compared with “MWSGLLPPGLNESDAESNSEDEATLENSGLNLQEDKEDESIRKTEIIDFSTDEPKTETESNVNAYEECPSGIPIDMWNKFQELHKKHSEQKSTTSRFRGKRRKRSRKDKLKNEKELHSEPSSNETQWKELTQYFGVNDRFDPPVKRKKVEKSGLEKRIDQAVEEWNIEKAEELSNQLATRELGVKIAKAVACHNFVKAKKEVENSQAARKKKKLAWGFEAKKRWETKSNMGYM [C10orf84]”, “MWSRLVWLGLRAPLGGRQGFTSKADPQGSGRITAAVIEHLERLALVDFGSREAVARLEKAIAFADRLRAVDTDGVEPMESVLEDRCLYLRSDNVVEGNCADELLQNSHRVVEEYFVAPPGNISLPKLDEQEPFPHS [15E1.2]” is lower in “relative ERE luciferase activity” value: 1.25 for the first, 1.14 for the second.

Going from “MYLQVETRTSSRLHLKRAPGIRSWSLLVGILSIGLAAAYYSGDSLGWKLFYVTGCLFVAVQNLEDWEEAIFDKSTGKVVLKTFSLYKKLLTLFRAGHDQVVVLLHDVRDVSVEEEKVRYFGKGYMVVLRLATGFSHPLTQSAVMGHRSDVEAIAKLITSFLELHCLESPTELSQSSDSEAGDPASQS [C17orf62]” to “MYSAPSACTCLCLHFLLLCFQVQVLVAEENVDFRIHVENQTRARDDVSRKQLRLYQLYSRTSGKHIQVLGRRISARGEDGDKYAQLLVETDTFGSQVRIKGKETEFYLCMNRKGKLVGKPDGTSKECVFIEKVLENNYTALMSAKYSGWYVGFTKKGRPRKGPKTRENQQDVHFMKRYPKGQPELQKPFKYTTVTKRSRRIRPTHPA [FGF18]”, the “relative ERE luciferase activity” value rises from 1.08 to 1.16.

Compared with RCOR3, SRXN1 is lower in “relative ERE luciferase activity” value: 1.25 for the first, 0.97 for the second.

Compared with TINP1, TMEM55A is higher in “relative ERE luciferase activity” value: 0.606 for the first, 1.32 for the second.

Compared with TNRC6C, VCX is higher in “relative ERE luciferase activity” value: 1.25 for the first, 3.15 for the second.

Going from ZNF34 to ZNF383, the “relative ERE luciferase activity” value rises from 1.08 to 1.09.

Going from ZNF557 to ZNF641, the “relative ERE luciferase activity” value rises from 1.23 to 2.39.

Going from ZNF720 to ZNF785, the “relative ERE luciferase activity” value rises from 1.06 to 1.18.

With ZSCAN16 the “relative ERE luciferase activity” value was 0.754.
